At least one read-out could not be matched to a standard name with certainty.
Tested on: astrocytes
Test: Extracellular lactate quantification
Assay type: cell-based, mouse
Details: Appendix II
Description: Primary cultures of cerebrocortical astrocytes were obtained from 1-2-day-old OF1 mouse pups (Charles River Laboratories). Briefly, cortices were isolated and minced in small pieces under a dissecting microscope. The cells were incubated for 30 min at 37° C. in a solution containing 20 U/ml of papain enzyme (Worthington Biochemical), L-cysteine 1 mM (Sigma), and 10 kU/ml DNase I (Worthington Biochemical) for an enzymatic dissociation. […]
Secretion of L-lactate was determined in the extracellular medium of 96-well plated astrocytes after 90 min stimulation (at 37° C., in 5% CO2/95% air conditions) with the drug of interest. […]
Briefly, 200 μl of a Glycine (Sigma)-Semicarbazide (Acros) 0.2M pH 10 buffer containing 3 mM NAD (Roche) and LDH 14 U/ml (Roche) was added to each well of a 96-well plate containing 30 μl aliquots complemented with 20 μl fresh complete D5030 medium. […] After samples cooled down at room temperature, the fluorescence intensity (340 nm excitation/450 nm emission) that represents the amount of NADH produced was measured, and lactate concentration values were determined from a standard curve of L-lactate. […]
Levels of lactate secreted by astrocytes were measured in the extracellular medium at 90 min after stimulation with hits (molecules) from the CDC54K library.

SMILES: CC(=O)c1c(C)[nH]c(C(=O)C(C)N(C)Cc2ccc3c(c2)OCO3)c1C (stereo not shown) [T5798761]
- Score Lact.: 0.73

Reference: patent publication US12274703B2, “Compositions and methods of treatment for neurological disorders comprising a dementia” (Gliapharm SA, priority 2017, dated 2025)
